Values quoted from earlier work as cited in patent publication US11083877B2 (Mercator MedSystems, Inc., priority 2009, dated 2021).
For at least one compound, name, drawing or mass did not settle the structure.

Test system: humans
Settings: systemic doses of 5-50 mg/kg/day

SMILES: N=C(N)NCCN1CCCCCCC1 [guanethidine, Guanidine, [2-(hexahydro-1(2H)-azocinyl)ethyl]-]
- sympathectomy with systemic doses: do not produce reliable sympathectomy
